Measured values published in PubChem BioAssay AID192 (DTP/NCI, 2004).
The list does not hold the whole screen: it covers a few groups of compounds. Other doses and runs of a compound may be missing. T/C is the treated group as % of the vehicle group. Where survival is the endpoint, this PubChem deposit counts one and a half times the control or more as active, and values a quarter to a half above the control carry no call in these data; other NCI protocols may use other cut-offs. Schedule codes are those of the source, taken here to give the interval after Q, in days (D) or hours (H), and the number of doses after X. Some T/C values are marked as having no survivor count here; that says nothing about deaths at the dose. Some entries were tested several times; the results are listed from low to high.

Tested on: BDF1 mice, B16 melanoma ip, median survival T/C
Experiment: NCI In Vivo Anticancer Drug Screen. Data for tumor model B16 Melanoma (intraperitoneal) in B6D2F1 (BDF1) mice
Settings: T/C endpoint: median survival time, schedule: Q01DX009 (ip), higher T/C = longer survival
Description: The antitumor activity of compounds was measured in mice bearing transplantable tumors. Survival or tumor size were measured and the results are expressed as the measurement made in the treated group (T) divided by the measurement made in the vehicle treated control group (C). The tumor model used in this assay is B16 Melanoma (intraperitoneal) in B6D2F1 (BDF1) mice

`CC1=C[C@H]2O[C@@H]3[C@H](O)[C@@H](O)[C@](C)(C2(COC(=O)CCl)CC1)[C@@]31CO1` (stereo not given in full) was tested, and the T/C (dose: 0.5 mg/kg/injection, vehicle: saline + alcohol) was 108 % of control [survivor count not shown], the T/C (dose: 1.0 mg/kg/injection, vehicle: saline + alcohol) was 112 % of control [survivor count not shown] and the T/C (dose: 2.0 mg/kg/injection, vehicle: distilled water + Tween-80) was 138 % of control [survivor count not shown]. For the same molecule, the T/C (dose: 2.0 mg/kg/injection, vehicle: saline + alcohol) was 112 % of control [survivor count not shown], the T/C (dose: 4.0 mg/kg/injection, vehicle: distilled water + Tween-80) was 138 % of control [survivor count not shown] and the T/C (dose: 4.0 mg/kg/injection, vehicle: saline + alcohol) was 127 % of control [survivor count not shown]. For the same molecule, the T/C (dose: 8.0 mg/kg/injection, vehicle: saline + alcohol) was 145 % of control [survivor count not shown].

For `CC(=O)OCC12CCC(C)=CC1OC1C(O)C(O)C2(C)C12CO2` (stereo not given), the T/C (dose: 0.5 mg/kg/injection, vehicle: saline) was 142 % of control [survivor count not shown] and the T/C (dose: 1.0 mg/kg/injection, vehicle: saline) was 125 % of control [survivor count not shown].

In the case of `CC(=O)O[C@@H]1[C@@H](O)[C@H]2O[C@@H]3C=C(C)C(=O)[C@@H](O)[C@]3(CO)[C@]1(C)[C@]21CO1`, the T/C (dose: 0.1 mg/kg/injection, vehicle: saline) is reported as 108 % of control [survivor count not shown], the T/C (dose: 0.2 mg/kg/injection, vehicle: saline, evaluated on day 45) is reported as 108 % of control [survivor count not shown] and the T/C (dose: 0.2 mg/kg/injection, vehicle: saline, evaluated on day 60) is reported as 113 % of control [survivor count not shown]. The T/C (dose: 0.4 mg/kg/injection, vehicle: saline, evaluated on day 45) was 102 % of control [survivor count not shown], the T/C (dose: 0.4 mg/kg/injection, vehicle: saline, evaluated on day 60) was 119 [survivor count not shown] and 136 % of control [survivor count not shown] and the T/C (dose: 0.8 mg/kg/injection, vehicle: saline, evaluated on day 45) was 136 % of control [survivor count not shown]. The T/C (dose: 0.8 mg/kg/injection, vehicle: saline, evaluated on day 60) was 143 [survivor count not shown] and 155 % of control [survivor count not shown] and the T/C (dose: 1.6 mg/kg/injection, vehicle: saline) was 146 % of control [survivor count not shown].

With `CC(=O)OCC12CC(O)C(C)=CC1OC1C(O)C(OC(C)=O)C2(C)C12CO2` (stereo not given) the T/C (dose: 0.31 mg/kg/injection, vehicle: saline) was 131 % of control [survivor count not shown], the T/C (dose: 0.62 mg/kg/injection, vehicle: saline) was 153 % of control [survivor count not shown] and the T/C (dose: 0.63 mg/kg/injection, vehicle: saline) was 160 % of control [survivor count not shown]. For the same molecule, the T/C (dose: 1.25 mg/kg/injection, vehicle: saline) was 138 [survivor count not shown] and 159 % of control [survivor count not shown] and the T/C (dose: 2.5 mg/kg/injection, vehicle: saline) was 154 [survivor count not shown] and 167 % of control [survivor count not shown].

`C[C@H](O)[C@H]1/C=C/C=C\C(=O)O[C@@H]2C[C@H]3O[C@@H]4[C@@H]5O[C@]5(C)CCC4(COC(=O)[C@H]4O[C@]4(C)[C@@H](O)CO1)[C@]2(C)[C@]31CO1` (stereo not given in full) was tested, and the T/C (dose: 156.0 micrograms/kg/injection, vehicle: saline + alcohol) was 118 % of control [survivor count not shown], the T/C (dose: 312.0 micrograms/kg/injection, vehicle: saline + alcohol) was 130 % of control [survivor count not shown] and the T/C (dose: 625.0 micrograms/kg/injection, vehicle: other) was 166 % of control [survivor count not shown]. For the same molecule, the T/C (dose: 625.0 micrograms/kg/injection, vehicle: saline + alcohol) was 140 % of control [survivor count not shown], the T/C (dose: 1250.0 micrograms/kg/injection, vehicle: other) was 162 % of control [survivor count not shown] and the T/C (dose: 1250.0 micrograms/kg/injection, vehicle: saline + alcohol) was 134 % of control [survivor count not shown]. For the same molecule, the T/C (dose: 2500.0 micrograms/kg/injection, vehicle: saline + alcohol) was 145 % of control [survivor count not shown] and the T/C (dose: 5000.0 micrograms/kg/injection, vehicle: saline + alcohol) was 156 % of control [survivor count not shown].

`C=C(C)C(=O)OCC12CC(=O)C(C)=CC1OC1C(=O)C(OC(=O)C(=C)C)C2(C)C12CO2` (stereo not given) was tested, and the T/C (dose: 0.25 mg/kg/injection, vehicle: water) was 138 % of control [survivor count not shown], the T/C (dose: 0.5 mg/kg/injection, vehicle: water) was 134 % of control [survivor count not shown] and the T/C (dose: 1.0 mg/kg/injection, vehicle: water) was 145 % of control [survivor count not shown]. For the same molecule, the T/C (dose: 2.0 mg/kg/injection, vehicle: water) was 153 % of control [survivor count not shown] and the T/C (dose: 4.0 mg/kg/injection, vehicle: water) was 148 % of control [survivor count not shown].
